Laboratory results from patent US6566047B1, “Method for identifying neurite-growth promoting agents” (The Regents of the University of Colorado, priority 1998, dated 2003).
For at least one compound, name, drawing or mass did not settle the structure.

Experiments:
DU 145 = experiment: Pseudopod retraction, microscopic examination, DU 145; type: cell-based, human
PC-3M-MM2 = experiment: Pseudopod retraction, microscopic examination, PC-3M-MM2; type: cell-based, human
MAT-Lu cells = experiment: Pseudopod morphometry (pseudopod length assay), MAT-Lu cells; type: cell-based, rat; settings: 15 min incubation
Description: Pseudopod Morphometry. To study the effects of various agents on pseudopods on a short-term basis, we measured pseudopod lengths. Cells plated in 35-mm diameter dishes at low density (1×10^4 per dish) were incubated overnight, tie medium was changed, and the experiments were run four hours later. First, cultures were shifted to serum-free medium, which was replaced one hour later by serum-free medium with or without the various agents (thrombin, AA or HETEs). Care was taken to avoid heat and light inactivation of the eicosanoids. Culture dishes were placed on a Zeiss inverted microscope equipped with a heated stage and viewed with a 16×phase contrast objective lens. Randomly selected fields of the cultures, containing generally about 20 cells each, were recorded, digitized and stored in the computer at the onset of the experiment and at different times thereafter.
In some cases, individual cells were monitored over different periods of time immediately after introduction of the reagent, either by mixing it into the medium or by applying it locally to one end of the cell. […] Cell morphology was recorded, and the captured images were analyzed with a Power Macintosh computer using NIH Image. Cell process length was measured from the center of the nucleus to the end of the process. […]

PC-3M = experiment: Pseudopod retraction, microscopic examination, PC-3M; type: cell-based, human
TSU-Pr1 = experiment: Pseudopod retraction, microscopic examination, TSU-Pr1; type: cell-based, human
PC-3 = experiment: Pseudopod retraction, microscopic examination, PC-3; type: cell-based, human
LNCaP = experiment: Pseudopod retraction, microscopic examination, LNCaP; type: cell-based, human

## CCCCC/C=C\C[C@H](O)/C=C/C=C\C/C=C\CCCC(=O)O [12(S)-HETE, 12(S)-hydroxyeicosatetraenoic acid]
DU 145
  Pseudopod retraction*: +
PC-3M-MM2
  Pseudopod retraction*: +
MAT-Lu cells
  concentration at peak of pseudopod detachment and retraction (biphasic dose-response): 10^−10 and 10^−11
PC-3M
  Pseudopod retraction*: +
TSU-Pr1
  Pseudopod retraction*: +
PC-3
  Pseudopod retraction*: +
LNCaP
  Pseudopod retraction*: +

## CCCCC[C@H](O)/C=C/C=C\C/C=C\C/C=C\CCCC(=O)O [15(S)-HETE, 15(S)-hydroxyeicosatetraenoic acid]
MAT-Lu cells
  concentration at peak of pseudopod detachment and retraction (biphasic dose-response): 10^−10 and 10^−11
